# Reference: patent US20160000883A1 (ZEALAND PHARMA A/S, priority 2011, published 2016)
# Assay: peptide synthesis
# Conditions: whole synthesis
substance,measurement,value
H-H-Aib-QGTFTSDYSKYLDS-K(Hexadecanoyl-isoGlu)-AAHDFVEWLLSA-NH2,purity (crude or final not stated),94%
